Our source for the binding values is article PMC3378586.

These are yes or no findings as the source states them, for the method shown. In cells and extracts the contact can be indirect. Some entries that bind do so weakly or less than the wild type. Tags and fused reporters may be left off the sequences shown.

This experiment addresses T1, Duf1-GFP (DUB-associated factor 1, Yol087c), tagged at the chromosomal locus (S. cerevisiae) (UniProt Q99247).
T1 sequence: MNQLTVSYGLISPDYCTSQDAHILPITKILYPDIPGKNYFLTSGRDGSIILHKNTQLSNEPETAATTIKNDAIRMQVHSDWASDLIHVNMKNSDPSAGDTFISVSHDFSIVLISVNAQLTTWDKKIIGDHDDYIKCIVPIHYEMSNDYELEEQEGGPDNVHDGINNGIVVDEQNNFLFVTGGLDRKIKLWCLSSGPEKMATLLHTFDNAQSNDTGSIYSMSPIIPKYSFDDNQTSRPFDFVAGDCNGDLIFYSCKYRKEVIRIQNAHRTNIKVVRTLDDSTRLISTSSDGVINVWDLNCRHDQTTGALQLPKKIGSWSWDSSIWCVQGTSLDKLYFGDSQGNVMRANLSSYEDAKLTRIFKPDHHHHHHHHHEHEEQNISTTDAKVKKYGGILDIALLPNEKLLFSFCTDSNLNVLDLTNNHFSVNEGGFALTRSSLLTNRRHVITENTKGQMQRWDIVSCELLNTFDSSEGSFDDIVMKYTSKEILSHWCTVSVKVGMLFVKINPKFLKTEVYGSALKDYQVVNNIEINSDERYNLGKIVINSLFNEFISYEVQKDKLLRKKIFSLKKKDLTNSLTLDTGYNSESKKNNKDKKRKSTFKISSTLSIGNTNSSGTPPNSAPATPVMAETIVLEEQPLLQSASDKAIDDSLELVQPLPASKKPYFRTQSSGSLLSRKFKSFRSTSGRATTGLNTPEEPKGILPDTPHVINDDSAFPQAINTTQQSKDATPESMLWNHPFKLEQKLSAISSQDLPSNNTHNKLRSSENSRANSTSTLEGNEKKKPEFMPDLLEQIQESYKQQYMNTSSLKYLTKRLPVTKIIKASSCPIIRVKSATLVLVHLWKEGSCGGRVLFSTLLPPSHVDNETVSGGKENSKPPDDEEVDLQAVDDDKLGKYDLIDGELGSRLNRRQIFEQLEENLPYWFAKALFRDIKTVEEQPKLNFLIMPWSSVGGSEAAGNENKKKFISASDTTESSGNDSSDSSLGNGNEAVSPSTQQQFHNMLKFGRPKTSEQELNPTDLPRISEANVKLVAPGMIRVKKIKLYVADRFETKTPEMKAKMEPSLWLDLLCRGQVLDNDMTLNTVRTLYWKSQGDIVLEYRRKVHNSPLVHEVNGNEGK
As to the kind of experiment: co-IP; immunoprecipitation of Duf1-GFP in native conditions with anti-GFP antibody from yeast lysates; blot with anti-HA; chromosome-encoded Ubp9-HA or Ubp13-HA, and Δubp9 Δubp13 cells with plasmid-encoded Ubp9 or Ubp13; lysis buffer 50 mM Hepes-KOH pH 7.5, 150 mM NaCl, 0.1% NP40, 10% glycerol, 1 mM EDTA; 1 h at 4°C.

B1: Ubp9-HA, tagged at the chromosomal locus (enzyme, UniProt P39967 1-754)
chain: MIKRWLSVNRKKSHPEKNTQGNDEINRKATSLKKTKGSGDPSIAKSPSAKSSTSSIPSNLASHERRSKFSSQTDNLAGNKHYHEHYHNMASTSDEREYDSSTTYEDRAFDTESSILFTTITDLMPYGDGSNKVFGYENFGNTCYCNSVLQCLYNIPEFRCNVLRYPERVAAVNRIRKSDLKGSKIRVFTNESFETSTNSGNSNTGYQSNDNEDAHNHHHLQQSDQDNSSSSTQEKQNNFERKRNSFMGFGKDKSNYKDSAKKDDNNEMERPQPVHTVVMASDTLTEKLHEGCKKIIVGRPLLKQSDSLSKASTTDCQANSHCQCDSQGSRITSVDDDVLVNPESCNDAVNNSNNNKENTFPTSEQRKKAALIRGPVLNVDHLLYPTEEATLYNGLKDIFESITENLSLTGIVSPTEFVKILKKENVLFNTMMQQDAHEFLNFLLNDFSEYIQRNNPRMRFGPQKTDNSNDNFITDLFKGTLTNRIKCLTCDNITSRDEPFLDFPIEVQGDEETDIQKMLKSYHQREMLNGVNKFYCNKCYGLQEAERMVGLKQLPHILSLHLKRFKYSEEQKSNIKLFNKILYPLTLDVSSTFNTSVYKKYELSGVVIHMGSGPQHGHYVCICRNEKFGWLLYDDETVESIKEETVLQFTGHPGDQTTAYVLFYKETQADKTENQNENIDTSSQDQMQTDNNIEQLIKCDDWLRDRKLRAAANIERKKTLGNIPEVKTAETKTPLNDKKRNKQKRKSRILSFIK
B1: the binding entry is “binds”.

B2: plasmid-encoded Ubp9-3HA (pFL38-UBP9-3HA) (enzyme, UniProt P39967 1-754)
chain: B1 chain
As to B2, the binding result is reported as “binds”.

B3: Ubp13-HA, tagged at the chromosomal locus (enzyme, UniProt P38187 1-747)
chain: MIRRWLTISKSGKKKKAVNDTITEEVEKVDFKPVNHDINDELCYSESSDNPSSSLFVSNLDTKETFLNEDNNLQISSGLDYSSETCNQGSNYSQDGIFYISNAKAINAYGGIITQGPEAPILAMKVSDSMPYGDGSNKVFGYENFGNTCYCNSVLQCLYNLSSLRENILQFPKKSRESDQPRKKEMRGKKPRIFTEASFEKSIAGTNGHLPNPKPQSVDDGKPTPVNSVNSNTAGPSEKKSKFFKSFSAKHVQDNNKKEGSPAILTTGKPSSRPQDAPPLIVETPNEPGAPSRLSFENVTDRPPDVPRKIIVGRVLNYENPSRGSSNSNNLDLKGESNSSLSTPLDKKDTRRSSSSSQISPEHRKKSALIRGPVLNIDHSLNGSDKATLYSSLRDIFECITENTYLTGVVSPSSFVDVLKRENVLFNTTMHQDAHEFFNFLLNELSEYIERENKKIAASDINSDSEPSKSKNFISDLFQGTLTNQIKCLTCDNITSRDEPFLDFPIEVQGDEETDIQEILKSYHQREMLNGSNKFYCDECCGLQEAERLVGLKQLPDTLTLHLKRFKYSEKQNCNIKLFNNIHYPLTLNVCSSINSKVCQKYELAGIVVHMGGGPQHGHYVSLCKHEKFGWLLFDDETVEAVKEETVLEFTGESPNMATAYVLFYKAMYSNAVEKNDRENMAKEQDDNIDNLIKYDDWLRTCNSGQKKKEELPIADDLDTAIDDSFVSNTPIKSSKKKSRMFSFRKS
As to B3, the binding entry is on record as “binds”.

B4: plasmid-encoded Ubp13-3HA (pFL38-UBP13-3HA) (enzyme, UniProt P38187 1-747)
chain: B3 chain
In the case of B4, the binding entry was “binds”.
